# Assay results as given in patent US20210253716A1.
# Amino acid sequences for entries named in this document (tags omitted). A change or cut given only in a name is not applied to a line headed by its entry.
# UniProt Q04771: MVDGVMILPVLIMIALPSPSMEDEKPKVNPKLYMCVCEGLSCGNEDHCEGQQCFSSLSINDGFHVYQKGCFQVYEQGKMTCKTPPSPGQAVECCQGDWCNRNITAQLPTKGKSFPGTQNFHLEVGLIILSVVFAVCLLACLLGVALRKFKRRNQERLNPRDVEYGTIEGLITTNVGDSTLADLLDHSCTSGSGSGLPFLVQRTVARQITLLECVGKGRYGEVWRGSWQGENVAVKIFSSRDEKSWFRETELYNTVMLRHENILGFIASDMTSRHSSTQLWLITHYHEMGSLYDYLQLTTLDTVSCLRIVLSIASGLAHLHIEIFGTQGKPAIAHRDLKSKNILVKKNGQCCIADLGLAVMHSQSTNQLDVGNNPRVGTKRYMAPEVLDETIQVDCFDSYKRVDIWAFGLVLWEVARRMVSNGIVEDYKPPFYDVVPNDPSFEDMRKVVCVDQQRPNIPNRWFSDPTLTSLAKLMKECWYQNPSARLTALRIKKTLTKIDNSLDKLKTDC
# No constants are given. Whether binding was seen depends on the method and setting. Some binding calls cover weakened binding; strength is not graded here.
# B1: mAb27247 (antibody, human IgG4 S228P, kappa, V domains shown)
# VH: EIQLVESGGDLVQPGGSLKLSCAASGFTFSDSAMHWVRQASGKGLEWVGRIRNKANTYATSYAASVKGRFTVSTDDSKTTAYLQMRYLKIEDTAIYYCTSDQFDYWGQGTLVTVSS
# VL: DVVMTQSPLSLSATLGQPASISCRSSQSLVYSDGITYLTWFQQRPGQSPTRLIYQVSNRDSGVPDRFNGSGSGTDFTLNISRVEAEDVGFYYCMEGTHWPWTFGQGTKVELKR
# B2: mAb22115 (antibody, human IgG4 S228P, kappa, V domains shown)
# VH: EVQLVESGGGLVQPGGSLRLSCAASGFTSSRYWMSWVRQAPGKGLEWLANINQDGSEKYYLESLRGRFTISRDNAKNSLYLQMNNLRAEDTAVYYCARDEEGYWGQGTLVTVSS
# VL: DVVMTQSLLSLSVTLGQPASISCRSSQSLVYSDGDTYLSWFQQRPGQSPRRLIYKVSHRDSGVPDRFRGSGSGTDFTLKISRVEAEDVGIYYCMQGTHWPPTFGQGTKVEIKR
# B3: mAb29266 (antibody, human IgG4 S228P, kappa, V domains shown)
# VH: QVQLVESGGGVVQPGRSLRLSCEVSGFTFSNYGMHWVRQAPGKGLEWVAVVSYDGSNKYYTDSVKGRFTISRDNSKNTLSLQMNSLRAEDTAVYYCAKDRGITGTSGGVFDIWGQGTMVTVSS
# VL: AIRMTQSPSSFSATTGDRVTITCRASQGISSHLAWYQQKPGKAPKFLIYVASTLQSGVPSRFSGSGSGTDFTLTISSLQSEDFATYYCQQYYSYPPTFGQGTKVEIKR
# Target: full length human ACVR1 (R206H) on HEK293/BRE-luc/hACVR1-R206H-clone H2 cells (human) (UniProt Q04771)
# Experiment: flow cytometry, HEK293/hACVR1-R206H cells
row,binding,Binder
1,binds,B1
2,binds,B2
3,binds,B3
